Measured values from PMC10746161.
Results are given in words; binding and its absence hold for the method and conditions named. Binding can be weak; no strength is given. Where a sequence is shown, tags or fusion partners need not be part of it.

B1: RlpA (PA4000) fused to the N-terminus of Cya-T18 (enzyme, UniProt Q9X6V6 27-342)
chain: CSSKAPQQPARQAGISGPGDYSRPHRDGAPWWDVDVSRIPDAVPMPHNGSVKANPYTVLGKTYYPMNDARAYRMVGTASWYGTKFHGQATANGETYDLYGMTAAHKTLPLPSYVRVTNLDNGKSVIVRVNDRGPFYSDRVIDLSFAAAKKLGYAETGTARVKVEGIDPVQWWAQRGRPAPMVLAQPKQAVAQAAPAAAQTQAVAMAQPIETYTPPPAQHAAAVLPVQIDSKKNASLPADGLYLQVGAFANPDAAELLKAKLSGVTAAPVFISSVVRNQQILHRVRLGPIGSADEVSRTQDSIRVANLGQPTLVRPD
B2: MltF C-terminal catalytic domain (CTD, aa 269-490) fused to the N-terminus of Cya-T18 (domain or fragment, UniProt Q9HXN1 269-490)
chain: VDVLGYVGAYTFAQHLQQRLPRYESHFKQSGKQLDTDWRLLAAIGYQESLWQPGATSKTGVRGLMMLTNRTAQAMGVSNRLDPKQSIQGGSKYFVQIRSELPESIKEPDRSWFALAAYNIGGAHLEDARKMAEKEGLNPNKWLDVKKMLPRLAQKQWYAKTRYGYARGGETVHFVQNVRRYYDILTWVTQPQMEGSQIAESGLHLPGVNKTRPEEDSGDEKL

Biological target: PA3978 fused to the C-terminus of Cya-T25 (P. aeruginosa)
Test: two-hybrid; bacterial two-hybrid (BACTH), Cya-T25 and Cya-T18 fusions in E. coli BTH101 (∆cya), MacConkey-maltose agar, 30°C

Row | Binder | binding
1 | B1 | no binding
2 | B2 | binds
